Measurements taken from publication PMC10018360.

Sequences of proteins named here, by UniProt entry; tags and fusion partners are left off.
UniProt Q9Y3E1: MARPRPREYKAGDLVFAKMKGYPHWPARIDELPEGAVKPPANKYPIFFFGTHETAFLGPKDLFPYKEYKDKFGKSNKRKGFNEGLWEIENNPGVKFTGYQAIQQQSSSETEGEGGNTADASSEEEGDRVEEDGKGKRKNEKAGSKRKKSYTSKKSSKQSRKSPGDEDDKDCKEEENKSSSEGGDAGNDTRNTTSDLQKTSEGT
UniProt Q12888: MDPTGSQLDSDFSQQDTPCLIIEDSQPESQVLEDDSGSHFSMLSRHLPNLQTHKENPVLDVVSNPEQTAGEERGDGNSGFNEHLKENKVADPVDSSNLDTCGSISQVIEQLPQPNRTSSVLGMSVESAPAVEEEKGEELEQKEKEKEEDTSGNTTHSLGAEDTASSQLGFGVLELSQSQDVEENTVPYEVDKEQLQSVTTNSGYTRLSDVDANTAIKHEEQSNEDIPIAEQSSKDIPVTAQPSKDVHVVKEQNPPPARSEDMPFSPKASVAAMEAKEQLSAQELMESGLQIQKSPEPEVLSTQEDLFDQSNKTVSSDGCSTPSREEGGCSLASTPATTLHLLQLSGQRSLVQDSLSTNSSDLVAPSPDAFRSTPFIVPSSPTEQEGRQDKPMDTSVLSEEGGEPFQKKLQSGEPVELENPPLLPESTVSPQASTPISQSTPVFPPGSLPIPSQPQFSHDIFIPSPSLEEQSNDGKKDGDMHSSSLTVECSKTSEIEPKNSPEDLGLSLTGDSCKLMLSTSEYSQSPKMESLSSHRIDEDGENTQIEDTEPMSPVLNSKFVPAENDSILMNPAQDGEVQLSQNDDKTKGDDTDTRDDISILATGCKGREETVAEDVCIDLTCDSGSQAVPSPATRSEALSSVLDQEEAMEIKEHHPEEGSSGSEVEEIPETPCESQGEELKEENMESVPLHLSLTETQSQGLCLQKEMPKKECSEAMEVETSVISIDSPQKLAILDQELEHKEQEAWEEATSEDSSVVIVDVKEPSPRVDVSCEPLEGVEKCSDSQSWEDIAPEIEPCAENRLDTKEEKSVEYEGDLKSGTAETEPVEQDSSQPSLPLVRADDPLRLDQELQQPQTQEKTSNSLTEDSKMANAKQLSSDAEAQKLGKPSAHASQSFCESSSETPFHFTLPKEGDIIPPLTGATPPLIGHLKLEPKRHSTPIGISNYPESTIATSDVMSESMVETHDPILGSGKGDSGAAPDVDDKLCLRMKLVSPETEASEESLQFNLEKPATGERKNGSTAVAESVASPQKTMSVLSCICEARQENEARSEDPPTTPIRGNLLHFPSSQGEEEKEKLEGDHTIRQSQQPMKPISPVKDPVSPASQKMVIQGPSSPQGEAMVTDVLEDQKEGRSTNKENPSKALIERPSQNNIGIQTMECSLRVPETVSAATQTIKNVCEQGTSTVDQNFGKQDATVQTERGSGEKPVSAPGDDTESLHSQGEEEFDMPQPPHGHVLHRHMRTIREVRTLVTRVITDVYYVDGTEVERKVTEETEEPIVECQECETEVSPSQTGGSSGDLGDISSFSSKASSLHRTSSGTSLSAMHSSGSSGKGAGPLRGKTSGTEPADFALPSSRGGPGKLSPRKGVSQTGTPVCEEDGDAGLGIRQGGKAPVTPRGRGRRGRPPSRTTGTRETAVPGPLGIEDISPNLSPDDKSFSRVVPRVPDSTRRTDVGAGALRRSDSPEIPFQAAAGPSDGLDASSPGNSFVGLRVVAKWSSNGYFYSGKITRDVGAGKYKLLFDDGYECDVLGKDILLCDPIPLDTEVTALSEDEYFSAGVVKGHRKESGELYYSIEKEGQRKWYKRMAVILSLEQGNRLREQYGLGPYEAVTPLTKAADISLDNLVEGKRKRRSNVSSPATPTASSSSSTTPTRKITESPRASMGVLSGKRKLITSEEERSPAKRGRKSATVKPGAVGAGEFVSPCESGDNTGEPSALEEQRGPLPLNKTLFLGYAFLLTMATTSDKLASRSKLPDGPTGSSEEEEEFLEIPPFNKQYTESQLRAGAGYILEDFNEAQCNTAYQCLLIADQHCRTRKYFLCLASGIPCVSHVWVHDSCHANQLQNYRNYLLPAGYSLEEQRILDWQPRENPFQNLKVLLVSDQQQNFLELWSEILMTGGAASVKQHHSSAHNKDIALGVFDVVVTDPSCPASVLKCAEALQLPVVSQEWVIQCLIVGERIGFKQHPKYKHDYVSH

Target: SFB-tagged human HDGFRP3 (wild type) (human) (UniProt Q9Y3E1)
Test: affinity purification with mass spectrometry; tandem affinity purification (streptavidin beads, biotin elution, S protein beads) from chromatin fractions of HEK293T cells stably expressing the SFB-tagged bait; also with damaged chromatin fraction

Substance: 53BP1, endogenous (from UniProt Q12888 1-1972)
- binding: binds

These are yes or no findings as the source states them, for the method shown. Binding seen in cells or lysates may run through a third protein. Here binding means that the protein was enriched with, or labelled near, the bait; the list need not be complete.
